In paper doi:10.1101/2023.12.06.570398:
Results are given in words; binding and its absence hold for the method and conditions named. For some assays here: In cells and extracts the contact can be indirect. Some entries that bind do so weakly or less than the wild type. Each block holds one substance with its values, some of them ahead of it.

Chains of the proteins cited; added tags and fusions are not shown. Residues count along the entry.
UniProt P01138, residues 122-241: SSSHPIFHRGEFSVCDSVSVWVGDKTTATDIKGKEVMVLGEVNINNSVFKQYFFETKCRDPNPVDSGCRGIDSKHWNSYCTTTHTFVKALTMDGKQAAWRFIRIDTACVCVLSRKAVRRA
UniProt O14786, residues 22-923: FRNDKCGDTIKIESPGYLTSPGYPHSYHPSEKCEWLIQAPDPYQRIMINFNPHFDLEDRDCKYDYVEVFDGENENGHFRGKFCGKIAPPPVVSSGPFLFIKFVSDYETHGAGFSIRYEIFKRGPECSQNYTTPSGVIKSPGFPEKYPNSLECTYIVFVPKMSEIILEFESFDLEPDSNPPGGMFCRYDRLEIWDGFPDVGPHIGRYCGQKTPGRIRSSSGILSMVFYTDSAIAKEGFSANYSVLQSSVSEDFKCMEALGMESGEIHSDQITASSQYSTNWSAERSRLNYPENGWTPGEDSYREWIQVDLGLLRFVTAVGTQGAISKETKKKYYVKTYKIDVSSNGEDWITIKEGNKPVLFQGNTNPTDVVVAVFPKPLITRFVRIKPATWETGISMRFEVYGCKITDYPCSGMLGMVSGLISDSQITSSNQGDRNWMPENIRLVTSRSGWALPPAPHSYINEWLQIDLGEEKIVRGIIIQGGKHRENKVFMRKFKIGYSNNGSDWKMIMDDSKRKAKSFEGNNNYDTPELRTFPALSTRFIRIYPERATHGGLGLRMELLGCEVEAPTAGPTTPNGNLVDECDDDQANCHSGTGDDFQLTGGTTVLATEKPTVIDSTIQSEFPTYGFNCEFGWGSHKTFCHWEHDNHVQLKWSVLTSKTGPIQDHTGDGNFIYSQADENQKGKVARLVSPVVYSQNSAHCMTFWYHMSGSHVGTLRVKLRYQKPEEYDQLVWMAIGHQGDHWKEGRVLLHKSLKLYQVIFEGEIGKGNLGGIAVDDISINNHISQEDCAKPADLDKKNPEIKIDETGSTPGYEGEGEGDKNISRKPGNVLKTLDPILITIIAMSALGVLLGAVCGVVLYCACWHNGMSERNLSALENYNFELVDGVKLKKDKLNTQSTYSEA
UniProt P08138, residues 29-427: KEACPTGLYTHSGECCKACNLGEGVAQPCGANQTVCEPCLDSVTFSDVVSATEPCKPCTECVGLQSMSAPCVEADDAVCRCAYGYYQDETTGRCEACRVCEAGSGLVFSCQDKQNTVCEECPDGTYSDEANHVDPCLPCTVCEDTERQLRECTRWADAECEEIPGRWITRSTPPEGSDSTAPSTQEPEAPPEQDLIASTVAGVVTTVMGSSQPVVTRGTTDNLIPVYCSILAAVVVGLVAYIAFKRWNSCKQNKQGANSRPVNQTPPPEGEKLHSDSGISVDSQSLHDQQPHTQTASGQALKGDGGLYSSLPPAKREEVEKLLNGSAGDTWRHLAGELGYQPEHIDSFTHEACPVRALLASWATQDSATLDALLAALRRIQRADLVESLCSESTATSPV
UniProt P68802, residues 28-163: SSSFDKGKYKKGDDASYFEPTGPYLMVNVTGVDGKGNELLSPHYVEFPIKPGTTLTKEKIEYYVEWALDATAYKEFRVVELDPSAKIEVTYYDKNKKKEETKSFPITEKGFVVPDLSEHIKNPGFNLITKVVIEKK
UniProt P04629, residues 33-796: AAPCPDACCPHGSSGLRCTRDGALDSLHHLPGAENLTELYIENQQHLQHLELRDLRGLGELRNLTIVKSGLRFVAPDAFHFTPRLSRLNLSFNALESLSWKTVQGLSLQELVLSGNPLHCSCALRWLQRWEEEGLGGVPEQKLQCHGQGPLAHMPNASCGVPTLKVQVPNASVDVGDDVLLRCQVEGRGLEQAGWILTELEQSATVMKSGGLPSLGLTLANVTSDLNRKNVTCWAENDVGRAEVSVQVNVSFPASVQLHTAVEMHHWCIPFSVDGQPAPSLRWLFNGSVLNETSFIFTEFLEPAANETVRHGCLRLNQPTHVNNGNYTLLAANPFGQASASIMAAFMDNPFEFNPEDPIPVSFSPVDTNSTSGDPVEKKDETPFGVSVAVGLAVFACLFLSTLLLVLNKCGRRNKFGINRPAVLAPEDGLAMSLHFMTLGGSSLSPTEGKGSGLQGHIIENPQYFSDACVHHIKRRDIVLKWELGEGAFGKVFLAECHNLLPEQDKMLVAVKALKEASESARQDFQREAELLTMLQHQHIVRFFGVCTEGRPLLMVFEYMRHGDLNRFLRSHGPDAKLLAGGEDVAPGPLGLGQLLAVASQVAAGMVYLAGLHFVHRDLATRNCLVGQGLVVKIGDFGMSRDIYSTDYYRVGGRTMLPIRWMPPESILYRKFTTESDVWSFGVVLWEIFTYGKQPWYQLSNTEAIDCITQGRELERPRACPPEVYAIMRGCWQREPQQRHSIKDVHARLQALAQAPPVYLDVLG
UniProt Q16602, residues 23-461: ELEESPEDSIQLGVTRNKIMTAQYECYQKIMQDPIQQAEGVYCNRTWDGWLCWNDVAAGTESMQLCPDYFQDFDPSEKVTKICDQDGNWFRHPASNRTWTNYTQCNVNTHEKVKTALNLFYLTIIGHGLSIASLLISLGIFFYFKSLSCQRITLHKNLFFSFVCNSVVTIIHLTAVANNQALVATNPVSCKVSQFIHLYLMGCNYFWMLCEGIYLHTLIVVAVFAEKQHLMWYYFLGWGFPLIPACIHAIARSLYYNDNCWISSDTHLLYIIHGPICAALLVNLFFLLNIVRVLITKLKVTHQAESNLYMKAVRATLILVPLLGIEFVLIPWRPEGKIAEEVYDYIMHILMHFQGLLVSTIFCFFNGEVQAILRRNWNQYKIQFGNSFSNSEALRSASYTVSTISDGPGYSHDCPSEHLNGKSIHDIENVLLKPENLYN

How the values were obtained:
[1] = biological target: fluorescent human NGF (human) (UniProt P01138); assay: MST
SnapTag-NRP1 (human) = SnapTag-NRP1 (human) (UniProt O14786); assay: FRET or BRET
Nanoluc-p75NTR = Nanoluc-p75NTR (UniProt P08138); assay: FRET or BRET
Nanoluc-NRP1 (human) = Nanoluc-NRP1 (human) (UniProt O14786); assay: FRET or BRET

Substance: staphylokinase (from UniProt P68802 28-163)
- binding [1]: no binding

- binding (SnapTag-NRP1 (human)): binds
Substance: NGF-HiBiT (from UniProt P01138 122-241) (ligand)

- binding (Nanoluc-p75NTR): binds
- binding (Nanoluc-NRP1 (human)): binds
Substance: SnapTag-TrkA (from UniProt P04629 33-796) (receptor)

- binding (Nanoluc-NRP1 (human)): no binding
Substance: SnapTag-calcitonin-like receptor (CALCRL) (from UniProt Q16602 23-461)
